# Test results from PubChem BioAssay AID1347075 (National Center for Advancing Translational Sciences (NCATS), 2019).
# The whole screen tested about 400,000 compounds, of which about 5,500 (1.4%) were called active. This list was built around the results that the source calls inconclusive (neither active nor inactive); the mix of calls is not that of the screen. Calls follow the shape of the dose curve; as a rule, active = well fitted cell-killing curve with a large enough effect; inconclusive = small, poorly fitted or top-dose-only effect, or effect the other way; inactive = flat fitted curve, though single readings scatter. Potencies of inconclusive entries are doubtful fits and often do not repeat.
# Experiment: qHTS assay for MDR1-selective chemotherapeutics: Primary screen using the parental adenocarcinoma cell KB-3-1; also: nearly all actives have a fitted effect of over 60% in size
# Settings: KB-3-1 viability, CellTiter-Glo ATP luminescence, 72 h; activity change, negative = cytotoxic: at 46.1 µM (top of the series)
# In short: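 Here the drug-naive KB-3-1 line serves as comparator for MDR sub-line selectivity; cells received compound titrations, 72 h at 37 °C, then CellTiter-Glo readout.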
# % is scaled to controls: 0 for no effect and ±100 for the full control effect; potency is read from the fitted curve at half-maximal effect.
SMILES,Potency,"activity change, negative = cytotoxic"
COc1ccc(C=NNC(=O)NN=Cc2ccc(OC)c(OC)c2)cc1OC,"inconclusive: 20.6 µM [cytotoxic, single point]",
COc1ccc2[nH]c(=O)c(CN(Cc3cccs3)S(=O)(=O)c3c(C)ccc4nsnc34)cc2c1,"inconclusive: 8.2 µM [cytotoxic, partial curve, poor fit]",
COc1ccc(OC)c(NCc2cccn2-c2nnc(N3CCCCC3)s2)c1,"inconclusive: 23.1 µM [cytotoxic, single point]",
CCN1CCN(c2ncc(C(=O)Nc3ccccc3C(=O)OC)c3ccccc23)CC1,"inconclusive: 18.4 µM [cytotoxic, single point]",
CCOC(=O)c1sc(NC(=S)NC(=O)C23CC4CC(CC(C4)C2)C3)cc1C,,inactive: -1.5%
c1ccc(-c2cn3c(n2)-c2ccccc2C3)cc1,"inconclusive: 16.4 µM [cytotoxic, partial curve, poor fit]",
O=C(Cc1ccccc1[N+](=O)[O-])NC1CC1,,inactive: -4.45%
Cc1ccc(-n2c(-c3ccc(Br)cc3)n[nH]c2=S)c(C)c1,,inactive: 1.1%
O=C(Cc1ccc([N+](=O)[O-])cc1)Nc1cccc(C(=O)N2CCCCC2)c1,"inconclusive: 20.6 µM [cytotoxic, single point]",
CS(=O)(=O)Nc1nc2n(n1)C(c1ccccc1)CC(c1ccccc1)N2 (centres undefined),,inactive: 4.52%
COc1cccc(C(=O)NC2CC3CCCC(C2)N3Cc2ccc(F)cc2)c1 (centres undefined),,inactive: -16.7%
CCn1cc(C(=O)OCC(=O)OC2CC(C)CCC2C(C)C)c(=O)c2ccc(C)nc21 (centres undefined),"inconclusive: 29.1 µM [cytotoxic, single point]",
O=C(CC1c2ccccc2C=C(c2ccsc2)N1c1ccc(-c2cccnc2)cc1)C1CC1 (centres undefined),"inconclusive: 29.1 µM [cytotoxic, single point]",
COc1ccc(C(C(=O)NC(C)(C)C)n2c(-c3ccc(=O)[nH]c3)nc3ccccc32)cc1 (centres undefined),"inconclusive: 20.6 µM [cytotoxic, single point]",
O=C(CCCOc1ccccc1)N1CCN(c2ccccc2)CC1,,inactive: -1.83%
CC(C)C(NS(=O)(=O)c1ccccc1)C(=O)N1CCCCCC1 (centres undefined),"inconclusive: 13 µM [rising, single point]",
Cc1c(NC(=O)c2cc(S(=O)(=O)N3CCCCC3)ccc2Cl)c(=O)n(-c2ccccc2)n1C,,inactive: -3.7%
CC(C)CC(c1nnnn1CC1CCCO1)N1CCN(c2cccc(Cl)c2)CC1 (centres undefined),"inconclusive: 18.4 µM [cytotoxic, partial curve]",
COc1ccc(C)cc1NC(=O)c1nnn(Cc2cccc(F)c2)c1N,"inconclusive: 18.4 µM [cytotoxic, single point]",

# An excerpt from above in order of formula weight, descending.
SMILES,Potency,"activity change, negative = cytotoxic"
Cc1c(NC(=O)c2cc(S(=O)(=O)N3CCCCC3)ccc2Cl)c(=O)n(-c2ccccc2)n1C,,inactive: -3.7%
O=C(Cc1ccc([N+](=O)[O-])cc1)Nc1cccc(C(=O)N2CCCCC2)c1,"inconclusive: 20.6 µM [cytotoxic, single point]",
COc1ccc(C)cc1NC(=O)c1nnn(Cc2cccc(F)c2)c1N,"inconclusive: 18.4 µM [cytotoxic, single point]",
